Some of these results come from one statement about several compounds together. At least one structure is not confirmed: it was looked up by name or label, or the drawing left a doubt.
Assays:
[1] = test system: Botrvotinia fuckeliana (Botrytis cinerea); test: Botryotinia fuckeliana (Botrytis cinerea) / liquid culture (gray mould); assay type: cell-based; conditions: 200 ppm, Vogels broth, 3-4 days after application
[2] = test system: Glomerella lagenarium (Colletotrichum lagenarium); test: Glomerella lagenarium / liquid culture (anthracnose); assay type: cell-based; conditions: 200 ppm, PDB, 3-4 days after application
[3] = test system: Phaeosphaeria nodorum (Septoria nodorum); test: Phaeosphaeria nodorum / wheat / leaf disc preventative (glume blotch); assay type: in vivo; conditions: 200 ppm, wheat leaf segments cv Kanzler, compared to untreated control
Gaeumannomyces graminis = Gaeumannomyces graminis / liquid culture (take-all of cereals); assay type: cell-based; conditions: 200 ppm, PDB, 4-5 days after application
[4] = test system: Mycosphaerella graminicola (Septoria tritici); test: Mycosphaerella graminicola / liquid culture (Septoria blotch); assay type: cell-based; conditions: 200 ppm, PDB, 4-5 days after application
[5] = test system: Mycosphaerella arachidis (Cercospora arachidicola); test: Mycosphaerella arachidis / liquid culture (early leaf spot); assay type: cell-based; conditions: 200 ppm, PDB, 4-5 days after application
[6] = test system: Monographella nivalis (Microdochium nivale); test: Monographella nivalis / liquid culture (foot rot cereals); assay type: cell-based; conditions: 200 ppm, PDB, 4-5 days after application
[7] = test system: Puccinia recondita f. sp. Tritici; test: Puccinia recondita f. sp. tritici / wheat / leaf disc preventative (brown rust); assay type: in vivo; conditions: 200 ppm, wheat leaf segments cv. Kanzler, compared to untreated control
Pythium ultimum = Pythium ultimum / liquid culture (seedling damping off); assay type: cell-based; conditions: 200 ppm, potato dextrose broth, 2-3 days after application
Pyrenophora teres = Pyrenophora teres / barley / leaf disc preventative (net blotch); assay type: in vivo; conditions: 200 ppm, barley leaf segments cv. Hasso, compared to untreated control
[8] = test system: Thanatephorus cucumeris (Rhizoctonia solani); test: Thanatephorus cucumeris / liquid culture (foot rot, damping-off); assay type: cell-based; conditions: 200 ppm, PDB, 3-4 days after application
[9] = test system: Puccinia recondita f. sp. Tritici; test: Puccinia recondita f. sp. tritici / wheat / leaf disc curative (brown rust); assay type: in vivo; conditions: 200 ppm, wheat leaf segments, assessed 8 dpi, compared to untreated control
Sclerotinia sclerotiorum = Sclerotinia sclerotiorum / liquid culture (white mold); assay type: cell-based; conditions: 200 ppm, PDB, after 72 hrs
Gaumannomyces graminis = Gaumannomyces graminis / wheat pouch test (root browning); assay type: in vivo, G. graminis; conditions: 20 ppm; wheat seeds cv. Arina in pouch, 14 days; compared to untreated control
[10] = test system: Blumeria graminis f. sp. Tritici (Erysiphe graminis f. Sp. Tritici); test: Blumeria graminis f. sp. tritici / wheat / leaf disc preventative (powdery mildew on wheat); assay type: in vivo; conditions: 200 ppm, wheat leaf segments cv. Kanzler, compared to untreated control

OB1OCc2cc(F)c(C=NOCc3ccc(Cl)cc3)cc21 (single isomer, unassigned) [Compound 123]
at least 80%: disease control (inhibition of growth, photometric) [1] | disease control (inhibition of growth, photometric) [2] | disease control [3] | disease control (inhibition of growth, photometric) (Gaeumannomyces graminis) | disease control (inhibition of growth, photometric) [4] | disease control (inhibition of growth, photometric) [5] | disease control (inhibition of growth, photometric) [6]

OB1OCc2cc(F)c(C=NOCC=CCl)cc21 [Compound 132]
at least 80%: disease control (inhibition of growth, photometric) [1] | disease control (inhibition of growth, photometric) [2] | disease control [3] | disease control [7] | disease control (inhibition of growth, photometric) (Gaeumannomyces graminis) | disease control (inhibition of growth, photometric) (Pythium ultimum) | disease control (inhibition of growth, photometric) [4] | disease control (inhibition of growth, photometric) [5] | disease control (inhibition of growth, photometric) [6]

OB1OCc2cc(Cl)c(C=NOCc3ccccc3F)cc21 (single isomer, unassigned) [Compound 44]
at least 80%: disease control (inhibition of growth, photometric) [2] | disease control (Pyrenophora teres) | disease control [3] | disease control (inhibition of growth, photometric) (Gaeumannomyces graminis) | disease control (inhibition of growth, photometric) [6]

CCCCON=Cc1cc2c(cc1Cl)COB2O (single isomer, unassigned) [Compound 47]
at least 80%: disease control (inhibition of growth, photometric) [2] | disease control [3] | disease control (inhibition of growth, photometric) [8] | disease control (inhibition of growth, photometric) (Gaeumannomyces graminis) | disease control (inhibition of growth, photometric) (Pythium ultimum) | disease control (inhibition of growth, photometric) [4] | disease control (inhibition of growth, photometric) [5] | disease control (inhibition of growth, photometric) [6]

CC(C)ON=Cc1cc2c(cc1Cl)COB2O (single isomer, unassigned) [Compound 56]
at least 80%: disease control (inhibition of growth, photometric) [2] | disease control [3] | disease control (inhibition of growth, photometric) [8] | disease control (inhibition of growth, photometric) (Gaeumannomyces graminis) | disease control (inhibition of growth, photometric) (Pythium ultimum) | disease control (inhibition of growth, photometric) [4] | disease control (inhibition of growth, photometric) [5] | disease control (inhibition of growth, photometric) [6]

OB1OCc2cc(Cl)c(C=NOC3CCCCO3)cc21 (single isomer, unassigned) [Compound 42]
at least 80%: disease control (inhibition of growth, photometric) [2] | disease control [3] | disease control [7] | disease control (inhibition of growth, photometric) (Gaeumannomyces graminis) | disease control (inhibition of growth, photometric) (Pythium ultimum) | disease control (inhibition of growth, photometric) [6]

CCOC(=O)NN=Cc1cc2c(cc1F)COB2O (single isomer, unassigned) [Compound 91]
at least 80%: disease control [9] | disease control (inhibition of growth, photometric) [2] | disease control (inhibition of growth, photometric) (Pythium ultimum)

OB1OCc2cc(Cl)cc(C=NOCC=CCl)c21 [Compound 189]
at least 80%: disease control (inhibition of growth, photometric) [2] | disease control [3] | disease control (inhibition of growth, photometric) (Gaeumannomyces graminis) | disease control (inhibition of growth, photometric) (Pythium ultimum) | disease control (inhibition of growth, photometric) [4] | disease control (inhibition of growth, photometric) [6]

CC(C)(C)ON=Cc1cc2c(cc1Cl)COB2O (single isomer, unassigned) [Compound 41]
at least 80%: disease control (inhibition of growth, photometric) [2] | disease control [3] | disease control (inhibition of growth, photometric) [8] | disease control (inhibition of growth, photometric) (Gaeumannomyces graminis) | disease control (inhibition of growth, photometric) (Pythium ultimum) | disease control (inhibition of growth, photometric) [4] | disease control (inhibition of growth, photometric) [5] | disease control (inhibition of growth, photometric) [6]

OB1OCc2cc(F)c(C=NOCC=C(Cl)Cl)cc21 (single isomer, unassigned) [Compound 131]
at least 80%: disease control (inhibition of growth, photometric) [1] | disease control (inhibition of growth, photometric) [2] | disease control [3] | disease control [7] | disease control (inhibition of growth, photometric) [8] | disease control (inhibition of growth, photometric) (Gaeumannomyces graminis) | disease control (inhibition of growth, photometric) (Pythium ultimum) | disease control (inhibition of growth, photometric) [4] | disease control (inhibition of growth, photometric) [5] | disease control (inhibition of growth, photometric) [6]

Cc1ccc(CON=Cc2cc3c(cc2F)COB3O)cc1 (single isomer, unassigned) [Compound 149]
at least 80%: disease control (inhibition of growth, photometric) [1] | disease control (inhibition of growth, photometric) [2] | disease control (Pyrenophora teres) | disease control [3] | disease control (inhibition of growth, photometric at 620 nm) (Sclerotinia sclerotiorum) | disease control (inhibition of growth, photometric) (Gaeumannomyces graminis) | disease control (inhibition of growth, photometric) [4] | disease control (inhibition of growth, photometric) [5] | disease control (inhibition of growth, photometric) [6]

OB1OCc2cc(C=NOCC=C(Cl)Cl)ccc21 (single isomer, unassigned) [Compound 405]
at least 80%: disease control (inhibition of growth, photometric) [1] | disease control (inhibition of growth, photometric) [2] | disease control (degree of root browning) (Gaumannomyces graminis) | disease control (inhibition of growth, photometric) [8] | disease control (inhibition of growth, photometric) (Gaeumannomyces graminis) | disease control (inhibition of growth, photometric) [4] | disease control (inhibition of growth, photometric) [5] | disease control (inhibition of growth, photometric) [6]

NC(=S)NN=Cc1cc2c(cc1Cl)COB2O (single isomer, unassigned) [Compound 76]
at least 80%: disease control [9] | disease control (inhibition of growth, photometric) [1] | disease control (inhibition of growth, photometric) [2] | disease control (inhibition of growth, photometric at 620 nm) (Sclerotinia sclerotiorum) | disease control [7] | disease control (inhibition of growth, photometric) [8] | disease control (inhibition of growth, photometric) (Pythium ultimum) | disease control (inhibition of growth, photometric) [4] | disease control [10] | disease control (inhibition of growth, photometric) [5] | disease control (inhibition of growth, photometric) [6]

OB1OCc2cc(Cl)c(C=NOCc3ccccc3)cc21 (single isomer, unassigned) [Compound 40]
at least 80%: disease control (inhibition of growth, photometric) [2] | disease control [3] | disease control (inhibition of growth, photometric) (Gaeumannomyces graminis) | disease control (inhibition of growth, photometric) [4] | disease control (inhibition of growth, photometric) [6]

OB1OCc2cc(F)cc(C=NNc3ccc(Cl)cc3Cl)c21 (single isomer, unassigned) [Compound 240]
at least 80%: disease control (inhibition of growth, photometric) (Pythium ultimum) | disease control [10]

OB1OCc2cc(F)c(C=NOC3CCCCO3)cc21 (single isomer, unassigned) [Compound 122]
at least 80%: disease control [9] | disease control (inhibition of growth, photometric) [2] | disease control (inhibition of growth, photometric) (Gaeumannomyces graminis) | disease control (inhibition of growth, photometric) (Pythium ultimum) | disease control (inhibition of growth, photometric) [6]

OB1OCc2cc(F)c(C=NOCc3ccccc3)cc21 (single isomer, unassigned) [Compound 142]
at least 80%: disease control (inhibition of growth, photometric) [1] | disease control (inhibition of growth, photometric) [2] | disease control [3] | disease control (inhibition of growth, photometric at 620 nm) (Sclerotinia sclerotiorum) | disease control [7] | disease control (inhibition of growth, photometric) (Gaeumannomyces graminis) | disease control (inhibition of growth, photometric) (Pythium ultimum) | disease control (inhibition of growth, photometric) [4] | disease control (inhibition of growth, photometric) [5] | disease control (inhibition of growth, photometric) [6]

OB1OCc2cc(F)c(C=NNc3ccc(C(F)(F)F)cc3)cc21 (single isomer, unassigned) [Compound 114]
at least 80%: disease control (inhibition of growth, photometric) [1] | disease control (inhibition of growth, photometric) [2] | disease control (inhibition of growth, photometric at 620 nm) (Sclerotinia sclerotiorum) | disease control (inhibition of growth, photometric) [8] | disease control (inhibition of growth, photometric) (Gaeumannomyces graminis) | disease control (inhibition of growth, photometric) (Pythium ultimum) | disease control (inhibition of growth, photometric) [4] | disease control (inhibition of growth, photometric) [5] | disease control (inhibition of growth, photometric) [6]

Source: patent US20170000132A1, “BENZOXABOROLE FUNGICIDES” (SYNGENTA PARTICIPATIONS AG, priority 2013, published 2017)
